Test results from patent publication US4709012A, “Novel inhibitor peptides” (Washington University, priority 1986, dated 1987).
At least one peptide structure holds a part that was inferred or is arguable (an end, a ring closure or a residue). Where a SMILES comes first, the peptide text is derived from it.

Target: T1, N-myristoylglycylpeptide synthetase (N-myristoyl transferase) (Saccharomyces cerevisiae, UniProt P14743)
T1 construct: the crude membrane pellet was resuspended by pipetting into 400 μl of cold assay lysis buffer; endogenous in cells; host or cells: S. cerevisiae strain JR153 (protease-deficient), crude membrane fraction
T1 sequence (P14743 1-455): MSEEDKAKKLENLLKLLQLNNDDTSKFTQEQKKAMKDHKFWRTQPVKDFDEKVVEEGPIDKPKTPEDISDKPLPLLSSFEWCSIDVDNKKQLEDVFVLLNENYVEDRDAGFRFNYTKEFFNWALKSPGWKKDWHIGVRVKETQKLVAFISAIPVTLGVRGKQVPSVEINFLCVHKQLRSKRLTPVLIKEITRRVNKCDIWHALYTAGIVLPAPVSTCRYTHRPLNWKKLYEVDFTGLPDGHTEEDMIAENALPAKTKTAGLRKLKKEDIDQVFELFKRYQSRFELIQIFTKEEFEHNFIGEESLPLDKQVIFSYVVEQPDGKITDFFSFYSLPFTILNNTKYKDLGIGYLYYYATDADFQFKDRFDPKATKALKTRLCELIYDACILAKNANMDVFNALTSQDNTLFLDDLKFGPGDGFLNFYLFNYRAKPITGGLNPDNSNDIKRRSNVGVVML
Experiment: Assay for N-myristoylglycylpeptide synthetase activity, crude yeast membrane fractions (Table I)
Assay type: biochemical
Conditions: Test 3: + 1 mM test peptide, 18 μM GlyAsnAlaAlaAlaAlaArgArg substrate, control without added peptide 26.7

| SMILES | Rate of Myristoylpeptide Synthesis [DPM × 10^3 /10 min] |
| --- | --- |
| N=C(N)NCCC[C@H](NC(=O)[C@@H]1CCCN1C(=O)CN)C(=O)N1CCC[C@H]1C(N)=O [GPRP] (H-GPRP-NH2) | 25.6 |
| NCC(=O)N[C@@H](CC(N)=O)C(N)=O [GN] (H-Gly-Asn-NH2) | 28.0 |
